According to article PMC11953741:

Target: T1, Dsn1-6His-3Flag (S. cerevisiae) (UniProt P40568)
T1 sequence: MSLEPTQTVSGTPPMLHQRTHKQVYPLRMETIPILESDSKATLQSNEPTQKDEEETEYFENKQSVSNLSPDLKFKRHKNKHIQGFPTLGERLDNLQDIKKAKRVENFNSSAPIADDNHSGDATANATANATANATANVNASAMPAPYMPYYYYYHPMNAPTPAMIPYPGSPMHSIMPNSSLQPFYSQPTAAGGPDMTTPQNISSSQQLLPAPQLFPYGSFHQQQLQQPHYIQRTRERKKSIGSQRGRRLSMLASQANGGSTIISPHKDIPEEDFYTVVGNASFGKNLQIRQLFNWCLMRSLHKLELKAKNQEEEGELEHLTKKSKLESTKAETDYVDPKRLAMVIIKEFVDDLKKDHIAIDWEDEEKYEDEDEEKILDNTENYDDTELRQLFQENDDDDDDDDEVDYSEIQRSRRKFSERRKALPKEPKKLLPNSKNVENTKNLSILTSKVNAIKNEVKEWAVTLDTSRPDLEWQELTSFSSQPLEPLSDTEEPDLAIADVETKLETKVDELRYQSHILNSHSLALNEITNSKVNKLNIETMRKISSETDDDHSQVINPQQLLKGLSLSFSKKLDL
Assay: affinity purification with mass spectrometry; Flag immunoprecipitation of Dsn1-His-Flag from yeast extracts of NUF2-V5 and nuf2^Q21A-V5 strains, eluted in 0.2% RapiGest, trypsin digest, LC-MS/MS

binding: binds
B1: Mps1 kinase (enzyme, UniProt P54199 1-764)
chain: MSTNSFHDYVDLKSRTNTRQFSDDEEFTTPPKLSNFGSALLSHTEKTSASEILSSHNNDKIANRLEEMDRSSSRSHPPPSMGNLTSGHTSTSSHSTLFGRYLRNNHQTSMTTMNTSDIEINVGNSLDKSFERIRNLRQNMKEDITAKYAERRSKRFLISNRTTKLGPAKRAMTLTNIFDEDVPNSPNQPINARETVELPLEDSHQTNFKETKRNTDYDSIDFGDLNPIQYIKKHNLPTSDLPLISQIYFDKQREENRQAALRKHSSRELLYKSRSSSSSLSSNNLLANKDNSITSNNGSQPRRKVSTGSSSSKSSIEIRRALKENIDTSNNSNFNSPIHKIYKGISRNKDSDSEKREVLRNISINANHADNLLQQENKRLKRSLDDAITNENINSKNLEVFYHRPAPKPPVTKKVEIVEPAKSASLSNNRNIITVNDSQYEKIELLGRGGSSRVYKVKGSGNRVYALKRVSFDAFDDSSIDGFKGEIELLEKLKDQKRVIQLLDYEMGDGLLYLIMECGDHDLSQILNQRSGMPLDFNFVRFYTKEMLLCIKVVHDAGIVHSDLKPANFVLVKGILKIIDFGIANAVPEHTVNIYRETQIGTPNYMAPEALVAMNYTQNSENQHEGNKWKVGRPSDMWSCGCIIYQMIYGKPPYGSFQGQNRLLAIMNPDVKIPFPEHTSNNEKIPKSAIELMKACLYRNPDKRWTVDKVLSSTFLQPFMISGSIMEDLIRNAVRYGSEKPHISQDDLNDVVDTVLRKFADYKI

These are yes or no findings as the source states them, for the method shown. In cells and extracts the contact can be indirect. These calls come from enrichment with a bait or labelling near it, and not all partners need be listed. Sequences can lack the tags named with a protein.
